Data reported in doi:10.1101/2024.10.10.617692.
Where two headings read alike, the source gives them in different places. These are yes or no findings as the source states them, for the method shown. In cells and extracts the contact can be indirect. Some binding calls cover weakened binding; strength is not graded here.

Chains of the proteins cited; added tags and fusions are not shown.
UniProt P11940: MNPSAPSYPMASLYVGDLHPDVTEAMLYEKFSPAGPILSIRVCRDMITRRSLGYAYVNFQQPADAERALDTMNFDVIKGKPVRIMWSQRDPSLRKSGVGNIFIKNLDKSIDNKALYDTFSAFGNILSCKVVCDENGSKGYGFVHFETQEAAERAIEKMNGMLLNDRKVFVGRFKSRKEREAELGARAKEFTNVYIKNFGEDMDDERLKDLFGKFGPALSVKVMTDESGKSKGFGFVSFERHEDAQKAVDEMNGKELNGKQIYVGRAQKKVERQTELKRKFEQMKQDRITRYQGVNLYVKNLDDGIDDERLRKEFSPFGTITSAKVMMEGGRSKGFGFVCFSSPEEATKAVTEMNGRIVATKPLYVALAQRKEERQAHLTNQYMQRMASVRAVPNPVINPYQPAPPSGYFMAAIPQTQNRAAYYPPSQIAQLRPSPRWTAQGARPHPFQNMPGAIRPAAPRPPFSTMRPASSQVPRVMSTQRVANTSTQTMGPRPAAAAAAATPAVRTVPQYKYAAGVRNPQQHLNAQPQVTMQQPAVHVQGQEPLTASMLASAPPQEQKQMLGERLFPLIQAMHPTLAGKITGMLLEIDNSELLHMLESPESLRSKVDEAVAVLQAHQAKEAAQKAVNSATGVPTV
UniProt Q9BYM8: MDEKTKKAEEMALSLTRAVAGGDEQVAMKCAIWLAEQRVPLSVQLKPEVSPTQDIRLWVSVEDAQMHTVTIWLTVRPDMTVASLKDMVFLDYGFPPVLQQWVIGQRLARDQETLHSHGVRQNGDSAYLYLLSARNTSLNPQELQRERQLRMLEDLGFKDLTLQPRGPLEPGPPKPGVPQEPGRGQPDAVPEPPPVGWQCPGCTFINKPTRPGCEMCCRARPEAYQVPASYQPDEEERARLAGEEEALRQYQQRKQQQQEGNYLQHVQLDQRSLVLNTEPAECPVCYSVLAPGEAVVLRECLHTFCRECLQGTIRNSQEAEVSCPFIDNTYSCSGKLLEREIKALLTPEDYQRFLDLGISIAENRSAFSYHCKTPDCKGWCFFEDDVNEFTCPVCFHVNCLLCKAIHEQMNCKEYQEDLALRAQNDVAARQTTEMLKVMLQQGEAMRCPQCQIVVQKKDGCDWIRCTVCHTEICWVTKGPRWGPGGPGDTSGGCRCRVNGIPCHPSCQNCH
UniProt P06730: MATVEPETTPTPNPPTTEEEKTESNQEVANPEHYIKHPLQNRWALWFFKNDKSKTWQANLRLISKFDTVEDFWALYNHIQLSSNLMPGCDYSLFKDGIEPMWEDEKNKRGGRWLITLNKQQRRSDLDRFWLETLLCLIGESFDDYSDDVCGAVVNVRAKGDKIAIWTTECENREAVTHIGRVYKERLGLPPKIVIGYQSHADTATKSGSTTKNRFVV

Tests used:
Test in all cases: co-IP
[1] = target: PABPC1-GFP (UniProt P11940)
[2] = target: endogenous PABPC1 (human (endogenous in AC16)) (UniProt P11940)
[3] = target: endogenous PABPC1 (human (endogenous in AC16)) (UniProt P11940); remark: listed apart in the source

binding [2] | Molecule | further results
– | Full-length HOIL-1 (from UniProt Q9BYM8 1-510) (enzyme) | binding [1]: binds
binds | full-length HOIL-1 (endogenous) (from UniProt Q9BYM8 1-510) (enzyme) | –
binds | eIF4E (from UniProt P06730 1-217) | –
– | MKRN1 (enzyme, UniProt Q9UHC7 1-482) MAEAATPGTTATTSGAGAAAATAAAASPTPIPTVTAPSLGAGGGGGGSDGSGGGWTKQVTCRYFMHGVCKEGDNCRYSHDLSDSPYSVVCKYFQRGYCIYGDRCRYEHSKPLKQEEATATELTTKSSLAASSSLSSIVGPLVEMNTGEAESRNSNFATVGAGSEDWVNAIEFVPGQPYCGRTAPSCTEAPLQGSVTKEESEKEQTAVETKKQLCPYAAVGECRYGENCVYLHGDSCDMCGLQVLHPMDAAQRSQHIKSCIEAHEKDMELSFAVQRSKDMVCGICMEVVYEKANPSERRFGILSNCNHTYCLKCIRKWRSAKQFESKIIKSCPECRITSNFVIPSEYWVEEKEEKQKLILKYKEAMSNKACRYFDEGRGSCPFGGNCFYKHAYPDGRREEPQRQKVGTSSRYRAQRRNHFWELIEERENSNPFDNDEEEVVTFELGEMLLMLLAAGGDDELTDSEDEWDLFHDELEDFYDLDL | binding [3]: binds
